Measured values published in patent US10383835B2, “Treatment of inflammatory disorders in non-human mammals” (The Regents of the University of California, priority 2012, dated 2019).
At least one compound was matched to its structure with a doubt left.

By UniProt entry, the sequences of proteins in these tests, tags left out. Residues count along the entry.
UniProt A0A8I3NJL8, 1-556: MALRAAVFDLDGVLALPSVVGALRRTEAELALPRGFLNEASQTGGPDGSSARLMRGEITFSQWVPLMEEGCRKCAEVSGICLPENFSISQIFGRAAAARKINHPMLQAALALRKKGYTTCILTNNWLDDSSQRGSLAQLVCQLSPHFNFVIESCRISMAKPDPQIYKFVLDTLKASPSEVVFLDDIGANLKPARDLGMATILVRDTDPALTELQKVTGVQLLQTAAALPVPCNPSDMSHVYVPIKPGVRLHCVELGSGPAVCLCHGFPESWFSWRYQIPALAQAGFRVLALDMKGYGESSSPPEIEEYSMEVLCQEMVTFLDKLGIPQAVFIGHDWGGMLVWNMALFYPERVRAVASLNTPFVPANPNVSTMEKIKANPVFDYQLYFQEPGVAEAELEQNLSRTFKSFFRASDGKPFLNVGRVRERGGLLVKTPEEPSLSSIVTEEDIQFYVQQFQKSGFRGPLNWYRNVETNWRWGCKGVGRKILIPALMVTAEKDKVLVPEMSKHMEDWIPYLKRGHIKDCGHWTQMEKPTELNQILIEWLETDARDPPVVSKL

Target: Canine sEH (Canis lupus familiaris, UniProt A0A8I3NJL8)
Assay: sEH Inhibitor Screen of Canine sEH
Format: biochemical

CCC(=O)N1CCC(NC(=O)Nc2ccc(OC(F)(F)F)cc2)CC1 [compound 1770, 1-trifluoromethoxyphenyl-3-(1-propionylpiperidin-4-yl) urea]
Inhibition % for [I] = 100 nM: 58%
